Measured values reported in patent US8623324B2, “Luminescent dyes with a water-soluble intramolecular bridge and their biological conjugates” (AAT Bioquest Inc., priority 2010, dated 2014).
Some entries share one result that the patent states for a list of compounds.

Test: Fluorescence energy transfer in conjugates of R-phycoerythrin and allophycocyanin
Assay type: physicochemical
Details: excited near 633 nm

| SMILES | emission of allophycocyanin tandem conjugate [nm] |
| --- | --- |
| CC12CCCCCC(=O)NCCCCCNC(=O)C(CS(=O)(=O)O)NC(=O)C(CS(=O)(=O)O)NC(=O)C(CS(=O)(=O)O)NC(=O)CCCCCC3(C)/C(=C/C=C/C=C/C1=[N+](CCCCCC(=O)ON1C(=O)CCC1=O)c1ccc(S(=O)(=O)O)cc12)N(CCCCCC(=O)ON1C(=O)CCC1=O)c1ccc(S(=O)(=O)O)cc13 (centres unmarked) [Compound 39] | > 700 |
| CC1(C)C2=[N+](CCCCCC(=O)NCCCCCNC(=O)C(CS(=O)(=O)O)NC(=O)C(CS(=O)(=O)O)NC(=O)C(CS(=O)(=O)O)NC(=O)CCCCCC3(C)/C(=C/C=C/C=C/2)N(CCCCCC(=O)ON2C(=O)CCC2=O)c2ccc(S(=O)(=O)O)cc23)c2ccc(S(=O)(=O)[O-])cc21 (centres unmarked) [Compound 34] | > 700 |
